Test results: PubChem BioAssay AID226 (DTP/NCI, 2004)
The list shows only some results of the screen, not a fair sample: its compounds were picked by chemical class. Not every dose and run of a compound is shown. T/C is the treated group as % of the vehicle group. Where survival is the endpoint, the PubChem record calls one and a half times the control and up active, and a quarter to a half above the control has no call in these data; cut-offs in other NCI protocols can differ. Some entries show no survivor count and are marked so; the dose need not have been tolerated. Schedule codes are those of the source, taken here to give the interval after Q, in days (D) or hours (H), and the number of doses after X.

Tested on: B6C3F1 mice, intracerebral ependymoblastoma, median survival T/C
Assay: NCI In Vivo Anticancer Drug Screen. Data for tumor model Ependymoblastoma (intracerebral) in B6C3F1 mice
Details: T/C endpoint: median survival time, schedule: Q01DX001 (ip), vehicle: saline, higher T/C = longer survival
Protocol: The antitumor activity of compounds was measured in mice bearing transplantable tumors. Survival or tumor size were measured and the results are expressed as the measurement made in the treated group (T) divided by the measurement made in the vehicle treated control group (C). The tumor model used in this assay is Ependymoblastoma (intracerebral) in B6C3F1 mice

SMILES: NC1CCCCC1.NP(=O)(O)N(CCCl)CCCl
- T/C (dose: 40.0 mg/kg/injection): 100 % of control [survivor count not shown]
- T/C (dose: 80.0 mg/kg/injection): 98 % of control [survivor count not shown]
- T/C (dose: 160.0 mg/kg/injection): 110 % of control [survivor count not shown]
- T/C (dose: 320.0 mg/kg/injection): 105 % of control [survivor count not shown]
